“And” between values parts separate entries of the source, which are not always exact repeats. Equal entries are not always repeated. Some compounds share one wording; it may come from a single statement.
Tested on: HT1080 Tet-On cells
Experiment: Proteolytic processing of secreted FGE and cleavage motif variants in HT1080 Tet-On cells (western blot)
Assay type: cell-based, human
Conditions: for fraction of secreted FGE in the unprocessed form: independent of the expression level; for processing of secreted FGE: 20 ng/mL doxycycline
[1] = transient expression, medium, western blot
[2] = transient expression, western blot

B1: FGE: human wild type full length formylglycine generating enzyme with RYSR furin cleavage motif, SEQ ID NO:2 (protein)
chain: ADEFSQEAGTGAGAGSLAGSCGCGTPQRPGAHGSSAAAHRYSREANAPGPVPGERQLAHSKMVPIPAGVFTMGTDDPQIKQDGEAPARRVTIDAFYMDAYEVSNTEFEKFVNSTGYLTEAEKFGDSFVFEGMLSEQVKTNIQQAVAAAPWWLPVKGANWRHPEGPDSTILHRPDHPVLHVSWNDAVAYCTWAGKRLPTEAEWEYSCRGGLHNRLFPWGNKLQPKGQHYANIWQGEFPVTNTGEDGFQGTAPVDAFPPNGYGLYNIVGNAWEWTSDWWTVHHSVEETLNPKGPPSGKDRVKKGGSYMCHRSYCYRYRCAARSQNTPDSSASNLGFRCAADRLPTMDSGRGSHHHHHHH
modifications: cloned matured acitve full length FGE with 6x His tag on C-terminus
- fraction of secreted FGE in the unprocessed form (medium): 25-35% and 20-30%
- fraction of secreted FGE in the unprocessed form (medium, listed as FGE-wt): 20-30%

B2: FGE-R69A: human FGE variant with R69A substitution in the furin cleavage motif (protein)
chain: ADEFSQEAGTGAGAGSLAGSCGCGTPQRPGAHGSSAAAHAYSAEANAPGPVPGERQLAHSKMVPIPAGVFTMGTDDPQIKQDGEAPARRVTIDAFYMDAYEVSNTEFEKFVNSTGYLTEAEKFGDSFVFEGMLSEQVKTNIQQAVAAAPWWLPVKGANWRHPEGPDSTILHRPDHPVLHVSWNDAVAYCTWAGKRLPTEAEWEYSCRGGLHNRLFPWGNKLQPKGQHYANIWQGEFPVTNTGEDGFQGTAPVDAFPPNGYGLYNIVGNAWEWTSDWWTVHHSVEETLNPKGPPSGKDRVKKGGSYMCHRSYCYRYRCAARSQNTPDSSASNLGFRCAADRLPTMDSGRGSHHHHHHH
modifications: FGE fl variant R(Arg) to A (Ala) in position 69
notes: human FGE variant with R69A substitution in the furin cleavage motif
- processing of secreted FGE [1]: all secreted FGE was in the unprocessed fl-form

B3: FGE-R72A: human FGE variant with R72A substitution in the furin cleavage motif (protein)
chain: ADEFSQEAGTGAGAGSLAGSCGCGTPQRPGAHGSSAAAHRYSAEANAPGPVPGERQLAHSKMVPIPAGVFTMGTDDPQIKQDGEAPARRVTIDAFYMDAYEVSNTEFEKFVNSTGYLTEAEKFGDSFVFEGMLSEQVKTNIQQAVAAAPWWLPVKGANWRHPEGPDSTILHRPDHPVLHVSWNDAVAYCTWAGKRLPTEAEWEYSCRGGLHNRLFPWGNKLQPKGQHYANIWQGEFPVTNTGEDGFQGTAPVDAFPPNGYGLYNIVGNAWEWTSDWWTVHHSVEETLNPKGPPSGKDRVKKGGSYMCHRSYCYRYRCAARSQNTPDSSASNLGFRCAADRLPTMDSGRGSHHHHHHH
modifications: FGE R72A variant
notes: human FGE variant with R72A substitution in the furin cleavage motif
- processing of secreted FGE [1]: all secreted FGE was in the unprocessed fl-form

B4: fl-FGE-R69A/R72A: human full length FGE variant, Arginine-69 and Arginine-72 converted to Alanine, non-cleavable furin motif, SEQ ID NO:4 (protein)
chain: ADEFSQEAGTGAGAGSLAGSCGCGTPQRPGAHGSSAAAHAYSAEANAPGPVPGERQLAHSKMVPIPAGVFTMGTDDPQIKQDGEAPARRVTIDAFYMDAYEVSNTEFEKFVNSTGYLTEAEKFGDSFVFEGMLSEQVKTNIQQAVAAAPWWLPVKGANWRHPEGPDSTILHRPDHPVLHVSWNDAVAYCTWAGKRLPTEAEWEYSCRGGLHNRLFPWGNKLQPKGQHYANIWQGEFPVTNTGEDGFQGTAPVDAFPPNGYGLYNIVGNAWEWTSDWWTVHHSVEETLNPKGPPSGKDRVKKGGSYMCHRSYCYRYRCAARSQNTPDSSASNLGFRCAADRLPTMDSGRGSHHHHHHH
modifications: double fl FGE variant R69A / R72A
- processing of secreted FGE [1]: all secreted FGE was in the unprocessed fl-form

B5: FGE-S71A: human FGE variant with S71A substitution in the furin cleavage motif (protein)
chain: ADEFSQEAGTGAGAGSLAGSCGCGTPQRPGAHGSSAAAHRYAREANAPGPVPGERQLAHSKMVPIPAGVFTMGTDDPQIKQDGEAPARRVTIDAFYMDAYEVSNTEFEKFVNSTGYLTEAEKFGDSFVFEGMLSEQVKTNIQQAVAAAPWWLPVKGANWRHPEGPDSTILHRPDHPVLHVSWNDAVAYCTWAGKRLPTEAEWEYSCRGGLHNRLFPWGNKLQPKGQHYANIWQGEFPVTNTGEDGFQGTAPVDAFPPNGYGLYNIVGNAWEWTSDWWTVHHSVEETLNPKGPPSGKDRVKKGGSYMCHRSYCYRYRCAARSQNTPDSSASNLGFRCAADRLPTMDSGRGSHHHHHHH
modifications: FGE fl variant S71A
notes: human FGE variant with S71A substitution in the furin cleavage motif
- processing of secreted FGE [1]: nearly complete processing

B6: FGE-Y70A: human FGE variant with Y70A substitution in the furin cleavage motif (protein)
chain: ADEFSQEAGTGAGAGSLAGSCGCGTPQRPGAHGSSAAAHRASREANAPGPVPGERQLAHSKMVPIPAGVFTMGTDDPQIKQDGEAPARRVTIDAFYMDAYEVSNTEFEKFVNSTGYLTEAEKFGDSFVFEGMLSEQVKTNIQQAVAAAPWWLPVKGANWRHPEGPDSTILHRPDHPVLHVSWNDAVAYCTWAGKRLPTEAEWEYSCRGGLHNRLFPWGNKLQPKGQHYANIWQGEFPVTNTGEDGFQGTAPVDAFPPNGYGLYNIVGNAWEWTSDWWTVHHSVEETLNPKGPPSGKDRVKKGGSYMCHRSYCYRYRCAARSQNTPDSSASNLGFRCAADRLPTMDSGRGSHHHHHHH
modifications: Y70A FGE variant
notes: human FGE variant with Y70A substitution in the furin cleavage motif
- FGE secreted in the fl-form compared to wildtype (wt) FGE [1]: 1.5 fold

B7: KYSR^72↓ E: human FGE motif variant with Lys at position P4 (R69K) (protein)
chain: ADEFSQEAGTGAGAGSLAGSCGCGTPQRPGAHGSSAAAHKYSREANAPGPVPGERQLAHSKMVPIPAGVFTMGTDDPQIKQDGEAPARRVTIDAFYMDAYEVSNTEFEKFVNSTGYLTEAEKFGDSFVFEGMLSEQVKTNIQQAVAAAPWWLPVKGANWRHPEGPDSTILHRPDHPVLHVSWNDAVAYCTWAGKRLPTEAEWEYSCRGGLHNRLFPWGNKLQPKGQHYANIWQGEFPVTNTGEDGFQGTAPVDAFPPNGYGLYNIVGNAWEWTSDWWTVHHSVEETLNPKGPPSGKDRVKKGGSYMCHRSYCYRYRCAARSQNTPDSSASNLGFRCAADRLPTMDSGRGSHHHHHHH
modifications: FGE (FL) variant R 69 K
- cleavage efficiency (fl-FGE/Δ72-FGE ratio in the medium) compared to FGE-wt [2]: doubling

B8: RYSK^72↓ E: human FGE motif variant with Lys at position P1 (R72K) (protein)
chain: ADEFSQEAGTGAGAGSLAGSCGCGTPQRPGAHGSSAAAHRYSKEANAPGPVPGERQLAHSKMVPIPAGVFTMGTDDPQIKQDGEAPARRVTIDAFYMDAYEVSNTEFEKFVNSTGYLTEAEKFGDSFVFEGMLSEQVKTNIQQAVAAAPWWLPVKGANWRHPEGPDSTILHRPDHPVLHVSWNDAVAYCTWAGKRLPTEAEWEYSCRGGLHNRLFPWGNKLQPKGQHYANIWQGEFPVTNTGEDGFQGTAPVDAFPPNGYGLYNIVGNAWEWTSDWWTVHHSVEETLNPKGPPSGKDRVKKGGSYMCHRSYCYRYRCAARSQNTPDSSASNLGFRCAADRLPTMDSGRGSHHHHHHH
modifications: FGE fl variant R72K
- cleavage efficiency (fl-FGE/Δ72-FGE ratio in the medium) compared to FGE-wt [2]: doubling

B9: RYSR^72↓ P: human FGE variant, substitution of Glu73 with proline (protein)
chain: ADEFSQEAGTGAGAGSLAGSCGCGTPQRPGAHGSSAAAHRYSRPANAPGPVPGERQLAHSKMVPIPAGVFTMGTDDPQIKQDGEAPARRVTIDAFYMDAYEVSNTEFEKFVNSTGYLTEAEKFGDSFVFEGMLSEQVKTNIQQAVAAAPWWLPVKGANWRHPEGPDSTILHRPDHPVLHVSWNDAVAYCTWAGKRLPTEAEWEYSCRGGLHNRLFPWGNKLQPKGQHYANIWQGEFPVTNTGEDGFQGTAPVDAFPPNGYGLYNIVGNAWEWTSDWWTVHHSVEETLNPKGPPSGKDRVKKGGSYMCHRSYCYRYRCAARSQNTPDSSASNLGFRCAADRLPTMDSGRGSHHHHHHH
modifications: FGE variant E73P
notes: human FGE variant, substitution of Glu73 with proline
- cleavage efficiency (fl-FGE/Δ72-FGE ratio in the medium) compared to FGE-wt [2]: reduction in processing

B10: RFSR↓E: human FGE variant, Tyr70 at position P3 mutated to Phe (protein)
chain: ADEFSQEAGTGAGAGSLAGSCGCGTPQRPGAHGSSAAAHRFSREANAPGPVPGERQLAHSKMVPIPAGVFTMGTDDPQIKQDGEAPARRVTIDAFYMDAYEVSNTEFEKFVNSTGYLTEAEKFGDSFVFEGMLSEQVKTNIQQAVAAAPWWLPVKGANWRHPEGPDSTILHRPDHPVLHVSWNDAVAYCTWAGKRLPTEAEWEYSCRGGLHNRLFPWGNKLQPKGQHYANIWQGEFPVTNTGEDGFQGTAPVDAFPPNGYGLYNIVGNAWEWTSDWWTVHHSVEETLNPKGPPSGKDRVKKGGSYMCHRSYCYRYRCAARSQNTPDSSASNLGFRCAADRLPTMDSGRGSHHHHHHH
modifications: FGE fl variant Y70F
notes: human FGE variant, Tyr70 at position P3 mutated to Phe
- cleavage efficiency (fl-FGE/Δ72-FGE ratio in the medium) compared to FGE-wt [2]: clear increase in cleavage efficiency

B11: RKSR↓E: human FGE variant, Tyr70 at position P3 mutated to Lys (protein)
chain: ADEFSQEAGTGAGAGSLAGSCGCGTPQRPGAHGSSAAAHRKSREANAPGPVPGERQLAHSKMVPIPAGVFTMGTDDPQIKQDGEAPARRVTIDAFYMDAYEVSNTEFEKFVNSTGYLTEAEKFGDSFVFEGMLSEQVKTNIQQAVAAAPWWLPVKGANWRHPEGPDSTILHRPDHPVLHVSWNDAVAYCTWAGKRLPTEAEWEYSCRGGLHNRLFPWGNKLQPKGQHYANIWQGEFPVTNTGEDGFQGTAPVDAFPPNGYGLYNIVGNAWEWTSDWWTVHHSVEETLNPKGPPSGKDRVKKGGSYMCHRSYCYRYRCAARSQNTPDSSASNLGFRCAADRLPTMDSGRGSHHHHHHH
modifications: Y70K FGE fl variant
notes: human FGE variant, Tyr70 at position P3 mutated to Lys
- cleavage efficiency (fl-FGE/Δ72-FGE ratio in the medium) compared to FGE-wt [2]: clear increase in cleavage efficiency

From patent US20150141617A1, “PRODUCTION AND PURIFICATION OF ACTIVE EUKARYOTIC FORMYLGLYCINEGENERATING ENZYME (FGE) VARIANTS” (Universität Bielefeld, priority 2013, published 2015)
